No constants are given. Whether binding was seen depends on the method and setting. Some entries that bind do so weakly or less than the wild type.
Each binder was assayed against T1, human PD-L1 protein (coated antigen) (human, UniProt Q9NZQ7 19-238, limits assumed) (assay: PE-ELISA on coated PD-L1).
T1 construct: Construct not described; also called PD-L1 antigen; antigenic protein PD-L1

By UniProt entry, the sequences of proteins in these tests, tags left out. Where a name states a change or a piece, a line headed by the entry shows the natural chain unless it says otherwise.
UniProt Q9NZQ7: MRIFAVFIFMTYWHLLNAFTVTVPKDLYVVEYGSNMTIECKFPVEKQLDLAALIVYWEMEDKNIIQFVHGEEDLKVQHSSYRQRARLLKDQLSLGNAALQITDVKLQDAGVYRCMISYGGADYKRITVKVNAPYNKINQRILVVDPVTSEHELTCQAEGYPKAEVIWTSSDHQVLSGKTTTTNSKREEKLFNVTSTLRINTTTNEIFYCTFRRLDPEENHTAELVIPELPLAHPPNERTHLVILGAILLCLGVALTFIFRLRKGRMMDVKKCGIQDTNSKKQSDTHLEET

| Binder | binding |
| --- | --- |
| SEQ ID NO 8 (VHH, pMECS-expressed; also called anti-PD-L1 nanobody No. 8; VHH numbered 8) VHH: QVQLQESGGDSVQAGGSLRLACKVPGFTSNTCAMAWFRQAPGKEREFVSSISTGGTTGYAESAKGRFTLSKDEAKDTVYLQMNSLKPEDTAMYFCKSYACRTCIGRYCRTAPDAWGQGTQVTVSS | binds |
| SEQ ID NO 145 (VHH) VHH: QVQLQESGGGSVQAGGSLRLSCTAPGFTSNTCAMAWYRQAPGKEREFVSSRSTVGTTGYADSVKGRFTISKDEAKDTVYLQMNSLKPEDTAKYFCKTYACRDCIGRYCRTAPDAWGQGTQVTVSS | binds |
| SEQ ID NO 2 (VHH, pMECS-expressed; also called anti-PD-L1 nanobody No. 2; VHH numbered 2) VHH: QVQLQESGGGSVQAGGSLRLSCAVSRYSASNNVIKWMGWFRQAPGKEREGVAALYTSGGNTYYADSVKGRFTISRDYSENTVSLQMNNLKPEDTGMYYCATTVGTVLAGPLSARKYNYWGQGTQVTVSS | binds |

Source: patent US20190177416A1 (NANOMAB TECHNOLOGY, published 2019)
